Values of other authors as cited in US20090105632A1 (priority 2007, published 2009).

System: Parkinson's disease
Conditions: coadministration with levodopa

For `CCN(CC)C(=O)N[C@H]1C=C2c3cccc4[nH]cc(c34)C[C@H]2N(C)C1` [lisuride, N′-[(8α)-9,10-didehydro-6-methylergolin-8-yl]-N,N-diethylurea], which “reduction of levodopa dosage with the administration of lisuride” value is on record?
Its value is 25%.
